# The other results are listed elsewhere or left out. The calls rarely recur for the same compound in another form.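 Kinases were expressed as nanoluciferase fusions in K562 cells and luminescence was read every 4 h between 2 and 18 h as percent of control, DMSO set to 100% and a positive control to 0%. A time point counts as decreased when the signal drops significantly (2 sigma). The hit call is the authors' own, does not follow from the count of time points alone, and its rule is not shown.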
# The chains behind the UniProt entries cited, without tags or fusion partners. Where a name states a change or a piece, a line headed by the entry shows the natural chain unless it says otherwise.
# UniProt O75460: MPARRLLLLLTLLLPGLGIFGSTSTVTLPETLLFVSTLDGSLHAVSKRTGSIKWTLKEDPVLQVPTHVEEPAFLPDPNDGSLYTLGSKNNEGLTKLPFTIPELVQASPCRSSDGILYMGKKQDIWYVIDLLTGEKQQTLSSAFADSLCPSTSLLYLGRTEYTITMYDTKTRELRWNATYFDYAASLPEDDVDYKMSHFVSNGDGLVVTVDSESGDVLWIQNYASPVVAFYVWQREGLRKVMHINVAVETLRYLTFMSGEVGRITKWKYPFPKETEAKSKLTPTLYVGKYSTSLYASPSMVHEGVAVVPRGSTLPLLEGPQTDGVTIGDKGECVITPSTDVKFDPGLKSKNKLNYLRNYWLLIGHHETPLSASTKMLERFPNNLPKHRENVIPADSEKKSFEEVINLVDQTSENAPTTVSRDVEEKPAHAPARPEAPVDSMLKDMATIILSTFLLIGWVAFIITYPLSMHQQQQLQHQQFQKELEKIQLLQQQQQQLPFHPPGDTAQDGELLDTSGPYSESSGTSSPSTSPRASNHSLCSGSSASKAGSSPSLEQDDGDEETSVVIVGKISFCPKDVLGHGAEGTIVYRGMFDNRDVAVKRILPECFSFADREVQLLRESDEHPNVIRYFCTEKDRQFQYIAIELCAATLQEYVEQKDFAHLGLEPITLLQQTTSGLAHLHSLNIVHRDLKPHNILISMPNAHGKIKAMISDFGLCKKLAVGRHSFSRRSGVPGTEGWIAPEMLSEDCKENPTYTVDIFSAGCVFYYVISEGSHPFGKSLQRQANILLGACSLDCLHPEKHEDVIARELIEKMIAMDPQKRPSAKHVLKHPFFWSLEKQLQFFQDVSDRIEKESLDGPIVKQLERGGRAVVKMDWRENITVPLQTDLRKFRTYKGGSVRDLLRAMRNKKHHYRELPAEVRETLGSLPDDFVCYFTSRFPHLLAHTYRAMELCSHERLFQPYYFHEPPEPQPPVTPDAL
# UniProt P21802, whole entry, looked up: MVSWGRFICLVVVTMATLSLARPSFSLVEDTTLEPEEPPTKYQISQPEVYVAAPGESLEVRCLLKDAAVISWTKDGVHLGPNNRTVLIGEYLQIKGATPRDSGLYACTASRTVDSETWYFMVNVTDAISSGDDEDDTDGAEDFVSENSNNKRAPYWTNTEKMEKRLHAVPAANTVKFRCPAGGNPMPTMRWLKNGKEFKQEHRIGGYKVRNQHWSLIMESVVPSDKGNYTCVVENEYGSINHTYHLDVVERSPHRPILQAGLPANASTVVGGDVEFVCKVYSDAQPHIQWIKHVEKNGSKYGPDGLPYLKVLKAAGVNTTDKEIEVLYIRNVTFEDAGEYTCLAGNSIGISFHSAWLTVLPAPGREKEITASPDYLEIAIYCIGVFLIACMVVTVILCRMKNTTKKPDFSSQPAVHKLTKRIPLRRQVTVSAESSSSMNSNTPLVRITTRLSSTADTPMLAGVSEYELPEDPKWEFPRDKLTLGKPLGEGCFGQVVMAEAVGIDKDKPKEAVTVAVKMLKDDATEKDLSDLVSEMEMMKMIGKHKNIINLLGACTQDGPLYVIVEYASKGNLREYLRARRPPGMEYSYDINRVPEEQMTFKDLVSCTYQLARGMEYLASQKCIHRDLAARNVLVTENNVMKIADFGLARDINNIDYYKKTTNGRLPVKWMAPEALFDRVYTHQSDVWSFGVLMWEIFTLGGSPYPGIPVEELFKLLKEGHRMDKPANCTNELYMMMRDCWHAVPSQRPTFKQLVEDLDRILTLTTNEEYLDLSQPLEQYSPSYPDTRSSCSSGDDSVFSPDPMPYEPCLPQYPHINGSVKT
# UniProt P22607, whole entry, looked up: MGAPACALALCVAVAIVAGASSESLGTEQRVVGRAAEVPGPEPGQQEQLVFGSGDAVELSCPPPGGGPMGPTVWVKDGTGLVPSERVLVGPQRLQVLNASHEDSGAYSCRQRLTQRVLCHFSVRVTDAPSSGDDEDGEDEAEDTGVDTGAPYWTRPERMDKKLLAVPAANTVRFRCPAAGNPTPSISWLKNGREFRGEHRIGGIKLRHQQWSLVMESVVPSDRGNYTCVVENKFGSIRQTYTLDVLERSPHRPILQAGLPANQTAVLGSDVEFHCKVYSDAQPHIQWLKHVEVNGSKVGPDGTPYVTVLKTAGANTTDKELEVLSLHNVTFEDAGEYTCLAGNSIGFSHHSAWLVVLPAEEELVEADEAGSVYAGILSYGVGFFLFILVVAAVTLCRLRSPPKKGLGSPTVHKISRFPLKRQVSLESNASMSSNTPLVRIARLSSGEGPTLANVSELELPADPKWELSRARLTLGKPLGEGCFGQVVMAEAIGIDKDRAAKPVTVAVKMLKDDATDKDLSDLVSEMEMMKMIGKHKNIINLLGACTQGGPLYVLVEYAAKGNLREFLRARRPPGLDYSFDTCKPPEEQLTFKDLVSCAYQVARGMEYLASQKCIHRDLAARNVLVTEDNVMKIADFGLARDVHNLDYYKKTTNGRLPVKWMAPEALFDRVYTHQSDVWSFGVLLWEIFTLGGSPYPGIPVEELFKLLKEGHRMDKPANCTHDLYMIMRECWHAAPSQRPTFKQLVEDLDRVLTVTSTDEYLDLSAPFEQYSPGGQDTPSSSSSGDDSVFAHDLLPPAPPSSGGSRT
# UniProt P06241, whole entry, looked up: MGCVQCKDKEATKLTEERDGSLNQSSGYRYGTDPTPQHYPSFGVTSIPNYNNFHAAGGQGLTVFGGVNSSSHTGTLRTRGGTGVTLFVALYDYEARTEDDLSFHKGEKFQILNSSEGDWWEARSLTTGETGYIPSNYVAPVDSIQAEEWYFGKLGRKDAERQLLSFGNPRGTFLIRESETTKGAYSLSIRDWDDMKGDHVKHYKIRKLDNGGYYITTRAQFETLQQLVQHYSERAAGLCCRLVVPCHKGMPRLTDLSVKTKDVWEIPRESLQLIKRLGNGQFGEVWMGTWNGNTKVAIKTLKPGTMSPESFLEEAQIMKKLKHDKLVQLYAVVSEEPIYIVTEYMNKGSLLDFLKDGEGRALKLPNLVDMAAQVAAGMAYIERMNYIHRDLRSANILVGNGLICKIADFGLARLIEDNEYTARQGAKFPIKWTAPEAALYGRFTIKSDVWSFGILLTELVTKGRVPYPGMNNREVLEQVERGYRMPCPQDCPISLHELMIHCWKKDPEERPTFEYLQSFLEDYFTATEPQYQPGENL
# UniProt P49840: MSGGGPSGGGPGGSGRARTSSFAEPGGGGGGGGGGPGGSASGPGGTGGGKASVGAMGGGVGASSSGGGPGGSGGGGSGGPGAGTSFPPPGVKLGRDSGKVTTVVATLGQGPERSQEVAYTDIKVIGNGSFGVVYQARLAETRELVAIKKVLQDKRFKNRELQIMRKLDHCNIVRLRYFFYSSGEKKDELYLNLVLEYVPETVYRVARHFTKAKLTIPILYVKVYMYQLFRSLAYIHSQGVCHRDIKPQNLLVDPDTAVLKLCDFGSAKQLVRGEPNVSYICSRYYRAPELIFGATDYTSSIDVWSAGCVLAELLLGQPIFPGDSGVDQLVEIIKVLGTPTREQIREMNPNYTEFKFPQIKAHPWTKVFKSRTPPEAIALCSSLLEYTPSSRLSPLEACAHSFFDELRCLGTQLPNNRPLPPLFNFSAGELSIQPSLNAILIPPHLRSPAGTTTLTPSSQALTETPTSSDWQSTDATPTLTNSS
# UniProt Q9Y616: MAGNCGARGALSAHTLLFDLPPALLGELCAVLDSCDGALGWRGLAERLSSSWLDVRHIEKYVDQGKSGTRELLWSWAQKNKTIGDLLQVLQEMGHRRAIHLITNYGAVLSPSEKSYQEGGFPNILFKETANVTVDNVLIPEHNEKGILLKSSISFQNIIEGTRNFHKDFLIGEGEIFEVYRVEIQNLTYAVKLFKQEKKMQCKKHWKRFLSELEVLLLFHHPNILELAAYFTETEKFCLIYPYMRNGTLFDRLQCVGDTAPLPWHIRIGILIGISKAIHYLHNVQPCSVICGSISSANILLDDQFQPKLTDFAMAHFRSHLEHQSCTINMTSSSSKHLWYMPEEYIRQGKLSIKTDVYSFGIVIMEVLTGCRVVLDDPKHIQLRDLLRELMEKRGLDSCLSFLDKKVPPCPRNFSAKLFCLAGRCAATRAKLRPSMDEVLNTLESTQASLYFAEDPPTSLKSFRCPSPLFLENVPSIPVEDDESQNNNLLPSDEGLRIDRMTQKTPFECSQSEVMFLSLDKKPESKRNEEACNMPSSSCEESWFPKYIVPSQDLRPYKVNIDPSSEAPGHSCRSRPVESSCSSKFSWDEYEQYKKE
# UniProt P06239: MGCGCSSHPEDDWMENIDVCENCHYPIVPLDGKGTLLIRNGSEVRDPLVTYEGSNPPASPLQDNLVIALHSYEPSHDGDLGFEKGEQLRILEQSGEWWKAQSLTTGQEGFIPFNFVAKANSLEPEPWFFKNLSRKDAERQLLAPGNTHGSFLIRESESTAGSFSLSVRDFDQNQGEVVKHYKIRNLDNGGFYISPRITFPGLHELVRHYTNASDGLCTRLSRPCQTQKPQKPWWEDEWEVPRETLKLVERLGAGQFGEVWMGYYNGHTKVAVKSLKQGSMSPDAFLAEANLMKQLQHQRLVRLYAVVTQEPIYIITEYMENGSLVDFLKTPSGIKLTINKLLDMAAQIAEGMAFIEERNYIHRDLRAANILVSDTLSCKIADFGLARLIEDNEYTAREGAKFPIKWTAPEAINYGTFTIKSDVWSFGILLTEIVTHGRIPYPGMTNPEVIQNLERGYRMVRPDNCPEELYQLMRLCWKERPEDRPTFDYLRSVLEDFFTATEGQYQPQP
# UniProt P53667: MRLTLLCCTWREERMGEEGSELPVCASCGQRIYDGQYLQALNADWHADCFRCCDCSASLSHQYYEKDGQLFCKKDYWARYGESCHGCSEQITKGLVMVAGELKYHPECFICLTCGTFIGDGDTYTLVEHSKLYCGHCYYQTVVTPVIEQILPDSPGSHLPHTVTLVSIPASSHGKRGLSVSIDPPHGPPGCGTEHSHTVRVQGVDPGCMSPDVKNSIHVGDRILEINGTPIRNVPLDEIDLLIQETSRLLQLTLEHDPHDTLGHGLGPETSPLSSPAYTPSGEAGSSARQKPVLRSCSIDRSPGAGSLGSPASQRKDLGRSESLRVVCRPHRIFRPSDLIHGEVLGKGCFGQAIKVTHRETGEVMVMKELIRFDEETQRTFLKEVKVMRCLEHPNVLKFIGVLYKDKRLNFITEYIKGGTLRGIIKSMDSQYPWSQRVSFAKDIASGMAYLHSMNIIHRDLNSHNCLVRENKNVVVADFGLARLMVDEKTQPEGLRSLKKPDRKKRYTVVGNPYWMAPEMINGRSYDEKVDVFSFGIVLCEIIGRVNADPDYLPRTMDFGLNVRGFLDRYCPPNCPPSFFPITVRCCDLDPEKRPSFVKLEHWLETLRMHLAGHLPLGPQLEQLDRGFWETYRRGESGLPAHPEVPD
# UniProt Q12851: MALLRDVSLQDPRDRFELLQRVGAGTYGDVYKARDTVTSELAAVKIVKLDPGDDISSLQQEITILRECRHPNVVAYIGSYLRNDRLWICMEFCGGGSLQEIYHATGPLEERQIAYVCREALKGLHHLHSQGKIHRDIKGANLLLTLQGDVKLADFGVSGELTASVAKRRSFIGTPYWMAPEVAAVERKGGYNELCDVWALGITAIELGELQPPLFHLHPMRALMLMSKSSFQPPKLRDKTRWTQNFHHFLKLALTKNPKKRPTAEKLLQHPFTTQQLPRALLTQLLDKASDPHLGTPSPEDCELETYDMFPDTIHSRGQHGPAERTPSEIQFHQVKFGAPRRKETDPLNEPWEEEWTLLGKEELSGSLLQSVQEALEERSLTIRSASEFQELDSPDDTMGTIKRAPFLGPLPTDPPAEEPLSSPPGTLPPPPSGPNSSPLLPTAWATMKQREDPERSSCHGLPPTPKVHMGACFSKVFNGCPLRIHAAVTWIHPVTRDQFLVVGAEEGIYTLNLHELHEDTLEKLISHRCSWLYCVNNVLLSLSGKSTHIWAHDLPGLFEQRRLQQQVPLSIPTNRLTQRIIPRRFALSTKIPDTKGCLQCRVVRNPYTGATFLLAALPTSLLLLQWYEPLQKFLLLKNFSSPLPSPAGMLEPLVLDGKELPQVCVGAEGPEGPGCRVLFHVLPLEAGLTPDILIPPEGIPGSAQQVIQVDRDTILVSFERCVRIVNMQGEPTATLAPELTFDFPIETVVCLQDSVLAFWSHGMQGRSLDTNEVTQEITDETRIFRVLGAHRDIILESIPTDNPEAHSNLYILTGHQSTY
# Experiments:
# Assay in all cases: kinase-Nluc reporter destabilization hit call (1 = scored as downregulated) (binary); higher = compound decreases kinase abundance
# Conditions in all cases: K562, 2-18 h
# ERN1 = ERN1 (UniProt O75460)
# FGFR1 = FGFR1 (UniProt P11362)
# FGFR2 = FGFR2 (UniProt P21802)
# FGFR3 = FGFR3 (UniProt P22607)
# FGR = FGR (UniProt P09769)
# FLT3 = FLT3 (UniProt P36888)
# FYN = FYN (UniProt P06241)
# GSK3A = GSK3A (UniProt P49840)
# HER2 = HER2 (UniProt P04626)
# INSRR = INSRR (UniProt P14616)
# IRAK3 = IRAK3 (UniProt Q9Y616)
# JAK1 = JAK1 (UniProt P23458)
# LCK = LCK (UniProt P06239)
# LIMK1 = LIMK1 (UniProt P53667)
# LIMK2 = LIMK2 (UniProt P53671)
# LMTK2 = LMTK2 (UniProt Q8IWU2)
# LYN = LYN (UniProt P07948)
# MAP2K1 = MAP2K1 (UniProt Q02750)
# MAP2K2 = MAP2K2 (UniProt P36507)
# MAP4K2 = MAP4K2 (UniProt Q12851)
smiles,measurement,setting,value
"C=CC(=O)N1C[C@@H](Nc2ncnc3[nH]ccc23)CC[C@H]1C [(2R,5S)-Ritlecitinib]",kinase-Nluc reporter destabilization hit call,ERN1; 10 µM,inactive: 0
same,kinase-Nluc reporter destabilization hit call,FGFR1; 10 µM,inactive: 0
same,kinase-Nluc reporter destabilization hit call,FGFR2; 10 µM,inactive: 0
same,kinase-Nluc reporter destabilization hit call,FGFR3; 10 µM,inactive: 0
same,kinase-Nluc reporter destabilization hit call,FGR; 10 µM,inactive: 0
same,kinase-Nluc reporter destabilization hit call,FLT3; 10 µM,inactive: 0
same,kinase-Nluc reporter destabilization hit call,FYN; 10 µM,inactive: 0
same,kinase-Nluc reporter destabilization hit call,GSK3A; 10 µM,inactive: 0
same,kinase-Nluc reporter destabilization hit call,HER2; 10 µM,inactive: 0
same,kinase-Nluc reporter destabilization hit call,INSRR; 10 µM,inactive: 0
same,kinase-Nluc reporter destabilization hit call,IRAK3; 10 µM,inactive: 0
same,kinase-Nluc reporter destabilization hit call,JAK1; 10 µM,inactive: 0
same,kinase-Nluc reporter destabilization hit call,LCK; 10 µM,inactive: 0
same,kinase-Nluc reporter destabilization hit call,LIMK1; 10 µM,inactive: 0
same,kinase-Nluc reporter destabilization hit call,LIMK2; 10 µM,inactive: 0
same,kinase-Nluc reporter destabilization hit call,LMTK2; 10 µM,inactive: 0
same,kinase-Nluc reporter destabilization hit call,LYN; 10 µM,inactive: 0
same,kinase-Nluc reporter destabilization hit call,MAP2K1; 10 µM,inactive: 0
same,kinase-Nluc reporter destabilization hit call,MAP2K2; 10 µM,inactive: 0
same,kinase-Nluc reporter destabilization hit call,MAP4K2; 10 µM,inactive: 0
Cc1cn(-c2cc(NC(=O)c3ccc(C)c(Nc4nccc(-c5cccnc5)n4)c3)cc(C(F)(F)F)c2)cn1 [Nilotinib],kinase-Nluc reporter destabilization hit call,ERN1; 2.5 µM,inactive: 0
same,kinase-Nluc reporter destabilization hit call,FGFR1; 2.5 µM,inactive: 0
same,kinase-Nluc reporter destabilization hit call,FGFR2; 2.5 µM,inactive: 0
same,kinase-Nluc reporter destabilization hit call,FGFR3; 2.5 µM,inactive: 0
same,kinase-Nluc reporter destabilization hit call,FGR; 2.5 µM,inactive: 0
same,kinase-Nluc reporter destabilization hit call,FLT3; 2.5 µM,inactive: 0
same,kinase-Nluc reporter destabilization hit call,FYN; 2.5 µM,inactive: 0
same,kinase-Nluc reporter destabilization hit call,GSK3A; 2.5 µM,inactive: 0
same,kinase-Nluc reporter destabilization hit call,HER2; 2.5 µM,inactive: 0
same,kinase-Nluc reporter destabilization hit call,INSRR; 2.5 µM,inactive: 0
same,kinase-Nluc reporter destabilization hit call,IRAK3; 2.5 µM,inactive: 0
same,kinase-Nluc reporter destabilization hit call,JAK1; 2.5 µM,inactive: 0
same,kinase-Nluc reporter destabilization hit call,LCK; 2.5 µM,inactive: 0
same,kinase-Nluc reporter destabilization hit call,LIMK1; 2.5 µM,inactive: 0
same,kinase-Nluc reporter destabilization hit call,LIMK2; 2.5 µM,inactive: 0
same,kinase-Nluc reporter destabilization hit call,LMTK2; 2.5 µM,inactive: 0
same,kinase-Nluc reporter destabilization hit call,LYN; 2.5 µM,inactive: 0
same,kinase-Nluc reporter destabilization hit call,MAP2K1; 2.5 µM,inactive: 0
same,kinase-Nluc reporter destabilization hit call,MAP2K2; 2.5 µM,inactive: 0
same,kinase-Nluc reporter destabilization hit call,MAP4K2; 2.5 µM,inactive: 0
C[C@@H]1O[C@@H](Oc2c(-c3ccc(O)c(O)c3)oc3cc(O)cc(O)c3c2=O)[C@H](O)[C@H](O)[C@H]1O [Quercitrin],kinase-Nluc reporter destabilization hit call,ERN1; 10 µM,inactive: 0
same,kinase-Nluc reporter destabilization hit call,FGFR1; 10 µM,inactive: 0
same,kinase-Nluc reporter destabilization hit call,FGFR2; 10 µM,inactive: 0
same,kinase-Nluc reporter destabilization hit call,FGFR3; 10 µM,inactive: 0
same,kinase-Nluc reporter destabilization hit call,FGR; 10 µM,inactive: 0
same,kinase-Nluc reporter destabilization hit call,FLT3; 10 µM,inactive: 0
same,kinase-Nluc reporter destabilization hit call,FYN; 10 µM,inactive: 0
same,kinase-Nluc reporter destabilization hit call,GSK3A; 10 µM,inactive: 0
same,kinase-Nluc reporter destabilization hit call,HER2; 10 µM,inactive: 0
same,kinase-Nluc reporter destabilization hit call,INSRR; 10 µM,inactive: 0
same,kinase-Nluc reporter destabilization hit call,IRAK3; 10 µM,inactive: 0
same,kinase-Nluc reporter destabilization hit call,JAK1; 10 µM,inactive: 0
same,kinase-Nluc reporter destabilization hit call,LCK; 10 µM,inactive: 0
same,kinase-Nluc reporter destabilization hit call,LIMK1; 10 µM,inactive: 0
same,kinase-Nluc reporter destabilization hit call,LIMK2; 10 µM,inactive: 0
same,kinase-Nluc reporter destabilization hit call,LMTK2; 10 µM,inactive: 0
same,kinase-Nluc reporter destabilization hit call,LYN; 10 µM,inactive: 0
same,kinase-Nluc reporter destabilization hit call,MAP2K1; 10 µM,inactive: 0
same,kinase-Nluc reporter destabilization hit call,MAP2K2; 10 µM,inactive: 0
same,kinase-Nluc reporter destabilization hit call,MAP4K2; 10 µM,inactive: 0
Cn1cc(/C=C2\C(=O)Nc3cccnc32)c2ccccc21,kinase-Nluc reporter destabilization hit call,ERN1; 10 µM,inactive: 0
same,kinase-Nluc reporter destabilization hit call,FGFR1; 10 µM,inactive: 0
same,kinase-Nluc reporter destabilization hit call,FGFR2; 10 µM,inactive: 0
same,kinase-Nluc reporter destabilization hit call,FGFR3; 10 µM,inactive: 0
same,kinase-Nluc reporter destabilization hit call,FLT3; 10 µM,inactive: 0
same,kinase-Nluc reporter destabilization hit call,FYN; 10 µM,inactive: 0
same,kinase-Nluc reporter destabilization hit call,GSK3A; 10 µM,inactive: 0
same,kinase-Nluc reporter destabilization hit call,HER2; 10 µM,inactive: 0
same,kinase-Nluc reporter destabilization hit call,INSRR; 10 µM,inactive: 0
same,kinase-Nluc reporter destabilization hit call,IRAK3; 10 µM,inactive: 0
same,kinase-Nluc reporter destabilization hit call,JAK1; 10 µM,inactive: 0
same,kinase-Nluc reporter destabilization hit call,LCK; 10 µM,inactive: 0
same,kinase-Nluc reporter destabilization hit call,LIMK1; 10 µM,inactive: 0
same,kinase-Nluc reporter destabilization hit call,LIMK2; 10 µM,inactive: 0
same,kinase-Nluc reporter destabilization hit call,LMTK2; 10 µM,inactive: 0
same,kinase-Nluc reporter destabilization hit call,LYN; 10 µM,inactive: 0
same,kinase-Nluc reporter destabilization hit call,MAP2K1; 10 µM,inactive: 0
same,kinase-Nluc reporter destabilization hit call,MAP2K2; 10 µM,inactive: 0
same,kinase-Nluc reporter destabilization hit call,MAP4K2; 10 µM,inactive: 0
O=C(NCCCNc1nc(Nc2cccc(CN3CCOCC3)c2)ncc1C1CC1)C1CCC1,kinase-Nluc reporter destabilization hit call,ERN1; 10 µM,inactive: 0
same,kinase-Nluc reporter destabilization hit call,FGFR1; 10 µM,inactive: 0
same,kinase-Nluc reporter destabilization hit call,FGFR2; 10 µM,inactive: 0
same,kinase-Nluc reporter destabilization hit call,FGFR3; 10 µM,inactive: 0
same,kinase-Nluc reporter destabilization hit call,FGR; 10 µM,inactive: 0
same,kinase-Nluc reporter destabilization hit call,FLT3; 10 µM,inactive: 0
same,kinase-Nluc reporter destabilization hit call,FYN; 10 µM,inactive: 0
same,kinase-Nluc reporter destabilization hit call,GSK3A; 10 µM,inactive: 0
same,kinase-Nluc reporter destabilization hit call,HER2; 10 µM,inactive: 0
same,kinase-Nluc reporter destabilization hit call,INSRR; 10 µM,inactive: 0
same,kinase-Nluc reporter destabilization hit call,IRAK3; 10 µM,inactive: 0
same,kinase-Nluc reporter destabilization hit call,JAK1; 10 µM,inactive: 0
same,kinase-Nluc reporter destabilization hit call,LCK; 10 µM,inactive: 0
same,kinase-Nluc reporter destabilization hit call,LIMK1; 10 µM,inactive: 0
same,kinase-Nluc reporter destabilization hit call,LIMK2; 10 µM,inactive: 0
same,kinase-Nluc reporter destabilization hit call,LMTK2; 10 µM,inactive: 0
same,kinase-Nluc reporter destabilization hit call,MAP2K1; 10 µM,inactive: 0
same,kinase-Nluc reporter destabilization hit call,MAP2K2; 10 µM,inactive: 0
same,kinase-Nluc reporter destabilization hit call,MAP4K2; 10 µM,inactive: 0
O=C(O)c1ccc(Nc2ncc3c(n2)-c2ccc(Cl)cc2C(c2c(F)cccc2F)=NC3)cc1,kinase-Nluc reporter destabilization hit call,ERN1; 10 µM,inactive: 0
same,kinase-Nluc reporter destabilization hit call,FGFR1; 10 µM,inactive: 0
same,kinase-Nluc reporter destabilization hit call,FGFR2; 10 µM,inactive: 0
same,kinase-Nluc reporter destabilization hit call,FGFR3; 10 µM,inactive: 0
same,kinase-Nluc reporter destabilization hit call,FGR; 10 µM,inactive: 0
same,kinase-Nluc reporter destabilization hit call,FLT3; 10 µM,inactive: 0
same,kinase-Nluc reporter destabilization hit call,FYN; 10 µM,inactive: 0
same,kinase-Nluc reporter destabilization hit call,GSK3A; 10 µM,inactive: 0
same,kinase-Nluc reporter destabilization hit call,INSRR; 10 µM,inactive: 0
same,kinase-Nluc reporter destabilization hit call,IRAK3; 10 µM,inactive: 0
same,kinase-Nluc reporter destabilization hit call,JAK1; 10 µM,inactive: 0
same,kinase-Nluc reporter destabilization hit call,LCK; 10 µM,inactive: 0
same,kinase-Nluc reporter destabilization hit call,LIMK1; 10 µM,inactive: 0
same,kinase-Nluc reporter destabilization hit call,LIMK2; 10 µM,inactive: 0
same,kinase-Nluc reporter destabilization hit call,LMTK2; 10 µM,inactive: 0
same,kinase-Nluc reporter destabilization hit call,LYN; 10 µM,inactive: 0
same,kinase-Nluc reporter destabilization hit call,MAP2K1; 10 µM,inactive: 0
same,kinase-Nluc reporter destabilization hit call,MAP2K2; 10 µM,inactive: 0
same,kinase-Nluc reporter destabilization hit call,MAP4K2; 10 µM,inactive: 0
CC1(C)CNc2cc(NC(=O)c3cccnc3NCc3ccncc3)ccc21 [Motesanib (Diphosphate)],kinase-Nluc reporter destabilization hit call,ERN1; 2.5 µM,inactive: 0
same,kinase-Nluc reporter destabilization hit call,FGFR2; 2.5 µM,inactive: 0
same,kinase-Nluc reporter destabilization hit call,FGFR3; 2.5 µM,inactive: 0
same,kinase-Nluc reporter destabilization hit call,FGR; 2.5 µM,inactive: 0
same,kinase-Nluc reporter destabilization hit call,FLT3; 2.5 µM,inactive: 0
same,kinase-Nluc reporter destabilization hit call,FYN; 2.5 µM,active: 1
same,kinase-Nluc reporter destabilization hit call,GSK3A; 2.5 µM,inactive: 0
same,kinase-Nluc reporter destabilization hit call,HER2; 2.5 µM,inactive: 0
same,kinase-Nluc reporter destabilization hit call,INSRR; 2.5 µM,inactive: 0
same,kinase-Nluc reporter destabilization hit call,IRAK3; 2.5 µM,inactive: 0
same,kinase-Nluc reporter destabilization hit call,JAK1; 2.5 µM,inactive: 0
same,kinase-Nluc reporter destabilization hit call,LIMK1; 2.5 µM,inactive: 0
same,kinase-Nluc reporter destabilization hit call,LIMK2; 2.5 µM,inactive: 0
same,kinase-Nluc reporter destabilization hit call,LMTK2; 2.5 µM,inactive: 0
same,kinase-Nluc reporter destabilization hit call,MAP2K1; 2.5 µM,inactive: 0
same,kinase-Nluc reporter destabilization hit call,MAP2K2; 2.5 µM,inactive: 0
same,kinase-Nluc reporter destabilization hit call,MAP4K2; 2.5 µM,inactive: 0
C=CC(=O)Nc1cc2c(Nc3ccc(F)c(Cl)c3)ncnc2cc1OCCCN1CCOCC1 [Canertinib],kinase-Nluc reporter destabilization hit call,ERN1; 10 µM,inactive: 0
same,kinase-Nluc reporter destabilization hit call,FGFR1; 10 µM,inactive: 0
same,kinase-Nluc reporter destabilization hit call,FGFR2; 10 µM,inactive: 0
same,kinase-Nluc reporter destabilization hit call,FGFR3; 10 µM,inactive: 0
same,kinase-Nluc reporter destabilization hit call,FGR; 10 µM,inactive: 0
same,kinase-Nluc reporter destabilization hit call,FLT3; 10 µM,inactive: 0
same,kinase-Nluc reporter destabilization hit call,FYN; 10 µM,inactive: 0
same,kinase-Nluc reporter destabilization hit call,GSK3A; 10 µM,inactive: 0
same,kinase-Nluc reporter destabilization hit call,INSRR; 10 µM,inactive: 0
same,kinase-Nluc reporter destabilization hit call,IRAK3; 10 µM,inactive: 0
same,kinase-Nluc reporter destabilization hit call,JAK1; 10 µM,inactive: 0
same,kinase-Nluc reporter destabilization hit call,LIMK1; 10 µM,inactive: 0
same,kinase-Nluc reporter destabilization hit call,LIMK2; 10 µM,inactive: 0
same,kinase-Nluc reporter destabilization hit call,LMTK2; 10 µM,inactive: 0
same,kinase-Nluc reporter destabilization hit call,LYN; 10 µM,inactive: 0
same,kinase-Nluc reporter destabilization hit call,MAP2K1; 10 µM,inactive: 0
same,kinase-Nluc reporter destabilization hit call,MAP2K2; 10 µM,inactive: 0
same,kinase-Nluc reporter destabilization hit call,MAP4K2; 10 µM,inactive: 0
Cc1cc(Nc2cc(N3CCN(C)CC3)nc(/C=C/c3ccccc3)n2)n[nH]1,kinase-Nluc reporter destabilization hit call,ERN1; 2.5 µM,inactive: 0
same,kinase-Nluc reporter destabilization hit call,FGFR2; 2.5 µM,inactive: 0
same,kinase-Nluc reporter destabilization hit call,FGFR3; 2.5 µM,inactive: 0
same,kinase-Nluc reporter destabilization hit call,FGR; 2.5 µM,inactive: 0
same,kinase-Nluc reporter destabilization hit call,FLT3; 2.5 µM,inactive: 0
same,kinase-Nluc reporter destabilization hit call,FYN; 2.5 µM,inactive: 0
same,kinase-Nluc reporter destabilization hit call,GSK3A; 2.5 µM,inactive: 0
same,kinase-Nluc reporter destabilization hit call,HER2; 2.5 µM,inactive: 0
same,kinase-Nluc reporter destabilization hit call,INSRR; 2.5 µM,inactive: 0
same,kinase-Nluc reporter destabilization hit call,IRAK3; 2.5 µM,inactive: 0
same,kinase-Nluc reporter destabilization hit call,JAK1; 2.5 µM,inactive: 0
same,kinase-Nluc reporter destabilization hit call,LIMK1; 2.5 µM,inactive: 0
same,kinase-Nluc reporter destabilization hit call,LIMK2; 2.5 µM,inactive: 0
same,kinase-Nluc reporter destabilization hit call,LMTK2; 2.5 µM,inactive: 0
same,kinase-Nluc reporter destabilization hit call,LYN; 2.5 µM,inactive: 0
same,kinase-Nluc reporter destabilization hit call,MAP2K1; 2.5 µM,inactive: 0
same,kinase-Nluc reporter destabilization hit call,MAP2K2; 2.5 µM,inactive: 0
same,kinase-Nluc reporter destabilization hit call,MAP4K2; 2.5 µM,inactive: 0

# — the supplement of paper PMC12823440, “Inhibitors supercharge kinase turnover through native proteolytic circuits” (Nature, 2025)
